Assay results as given in PubChem BioAssay AID2685 (National Center for Advancing Translational Sciences (NCATS), 2010).
This is one part of the list. Further columns of the screen follow, without active or inactive calls. The list favours compounds with an active or inconclusive main result. The note in brackets gives the kind of curve behind each potency; many fits are weak.

Experiment: qHTS Assay for Lipid Storage Modulators in Drosophila S3 Cells;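 on cell number change: cells counted by Cell Tracker Red CMTPX staining in the red channel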
Conditions: BODIPY lipid droplet fluorescence, 18-24 h; for cell number change: measured here: cell count max response, cells fed with added oleic acid
Procedure, shortened: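 Laser-scanning cytometry quantifies lipid droplet accumulation (500–530 nm total intensity; droplet/cell object ratio) in oleic acid-fed (400 uM added) Drosophila S3 cells treated with a concentration series. 20 uM Triacsin C defined 100% inhibition.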

[1] = measured here: lipid fluorescence (Fed channel) AC50, cells fed with added oleic acid
[2] = measured here: cell number channel AC50, cells fed with added oleic acid

For `Cc1ccc(NC(=O)[C@@H]2CCCN2S(=O)(=O)c2ccccc2F)cc1S(=O)(=O)N1CCOCC1`, the cell number change was 1.71% and the AC50 [1] was 3.66 µM [rising, single point].
For `C=CCn1c(SCC(=O)Nc2cccc(C)c2)nnc1-c1cnccn1`, the cell number change was 1.33% and the AC50 [1] was 1.84 µM [rising, full curve, poor fit].
For `Cc1ccc(COC(=O)c2ccc3c(c2)C(=O)N(CCCN2CCOCC2)C3=O)cc1`, the cell number change was -30% and the AC50 [1] was 29.1 µM [falling, single point].
With `CN(C)CCCN1C(=O)c2cc3ccccc3cc2C1=O` the cell number change was -6.32% and the AC50 [1] was 4.11 µM [rising, single point].
In the case of `S=c1[nH]nc(CSc2nc3ccccc3s2)n1C1CCCCC1`, the cell number change is reported as -25.2% and the AC50 [1] is reported as 0.0651 µM [rising, full curve, poor fit].
For `c1ccc(CCN2CN=C(Nc3nc4ccccc4s3)NC2)cc1`, the cell number change was 48.2% and the AC50 [2] was 29.1 µM [rising, single point].
With `CCCc1nc(SCC(=O)Nc2nccs2)c2ccccc2n1` the cell number change was -15.9%.
In the case of `COc1cccc(NC(=O)c2ccc(Cn3cc([N+](=O)[O-])cn3)o2)c1`, the cell number change is reported as -49.5% and the AC50 [2] is reported as 29.1 µM [falling, single point].
For `COc1cccc(-c2nn(-c3ccc(C)cc3)cc2C(=O)NCC2CCCO2)c1` (stereo not given), the cell number change was 27.3%.
For `COc1ccccc1NC(=O)Cn1c(=O)n2nc(C)nc2c2ccccc21`, the cell number change was 9.11% and the AC50 [1] was 0.164 µM [rising, full curve, poor fit].
In the case of `Cc1cccc(NC(=O)c2cc(-c3c(C)cc(C)cc3O)n[nH]2)c1`, the cell number change is reported as 6.34% and the AC50 [2] is reported as 0.00461 µM [rising, full curve, poor fit].
With `COc1ccccc1NC(=O)Cn1nnc(C(=O)NCCc2ccccc2)c1N` the cell number change was 15.4%, the AC50 [2] was 0.206 µM [rising, partial curve] and the AC50 [1] was 1.16 µM [rising, partial curve, poor fit].
With `Cc1cc(C)n(CCCNC(=O)CN(C)S(=O)(=O)c2ccc(Cl)cc2)n1` the cell number change was -25% and the AC50 [2] was 4.61 µM [rising, single point].
In the case of `CCOC(=O)Cn1c(-c2ccccc2)cc(SC)c(C#N)c1=O`, the cell number change is reported as -8.97% and the AC50 [1] is reported as 2.06 µM [falling, full curve].
In the case of `C=CCSC(=C(C#N)C#N)c1cc2c([nH]1)CCCC2`, the cell number change is reported as -51.7%, the AC50 [2] is reported as 29.1 µM [falling, single point] and the AC50 [1] is reported as 4.11 µM [rising, partial curve].
For `COc1cccc(NC(=O)Nc2cccc(C(=O)O)c2)c1`, the cell number change was -15.4% and the AC50 [1] was 0.517 µM [falling, full curve, poor fit].
In the case of `O=C(OC1CCCCC1=O)c1cccc(S(=O)(=O)N2CCCCC2)c1` (stereo not given), the cell number change is reported as -13.1%, the AC50 [2] is reported as 0.146 µM [falling, full curve] and the AC50 [1] is reported as 8.2 µM [falling, partial curve].
In the case of `c1ccc(-c2ccccc2OCCOCCN2CCCCC2)cc1`, the cell number change is reported as -14.5% and the AC50 [1] is reported as 16.4 µM [rising, single point].
In the case of `O=C(CN1CCN(c2cccc(Cl)c2)CC1)Nc1ccc(S(=O)(=O)N2CCOCC2)cc1`, the cell number change is reported as -7.82% and the AC50 [1] is reported as 2.91 µM [falling, partial curve].
In the case of `O=C(CNC(=O)c1ccc(F)cc1)N/N=C/c1cn[nH]c1-c1ccccc1`, the cell number change is reported as -26.9%, the AC50 [2] is reported as 0.116 µM [rising, full curve, poor fit] and the AC50 [1] is reported as 4.11 µM [rising, partial curve, poor fit].
For `COc1ccc(NC(=O)CCl)cn1`, the cell number change was -23%.
Work on `COc1ccc(NC(=O)CN2CCN(C(=O)N3CCOCC3)CC2)cc1` yielded a cell number change of 14.7%.
`Cc1nn(C)cc1C1C2=C(CC(C)(C)CC2=O)N(c2ccccc2)C2=C1C(=O)CC(C)(C)C2` gave a cell number change of -1.21%.
For `Cc1c(C(=O)N2CCOCC2)c(S(=O)(=O)Nc2ccc(C(C)C)cc2)c(C)n1C`, the cell number change was 17.1%.
In the case of `COc1ccc(N(C(C)C(=O)N/N=C/c2ccc(OCC(C)C)cc2)S(C)(=O)=O)cc1` (stereo not given), the cell number change is reported as 9.29% and the AC50 [1] is reported as 16.4 µM [falling, single point].
In the case of `Fc1ccc(-c2csc(Nc3ccccn3)n2)c(F)c1`, the cell number change is reported as -30.1%, the AC50 [2] is reported as 20.6 µM [falling, single point] and the AC50 [1] is reported as 6.51 µM [rising, single point].
With `Cc1cccc(S(=O)(=O)c2c(N)n(/N=C/c3ccco3)c3nc4ccccc4nc23)c1` the cell number change was -26.5% and the AC50 [1] was 5.17 µM [falling, partial curve, poor fit].
For `CC(C)(C)N(Cc1ccccc1)C(=O)COC(=O)Cn1cnc2ccccc2c1=O`, the AC50 [2] was 0.517 µM [rising, single point] and the AC50 [1] was 18.4 µM [rising, single point].
In the case of `COCCCNC(=O)C1c2ccccc2Oc2ccccc21`, the cell number change is reported as 17.3%.
With `CC1CCC(NC(=O)CN(C)S(=O)(=O)c2ccc3c(c2)c(=O)n(C)c(=O)n3C)CC1` (stereo not given) the cell number change was -23% and the AC50 [1] was 5.8 µM [falling, full curve].
`Cc1ccc2c(c1)nnn2C1CCN(C(=O)NCc2ccccc2)CC1` showed a cell number change of -34.5%.
In the case of `CCCCCCc1cc2cc(S(=O)(=O)c3ccc(F)c(Cl)c3)c(=O)oc2cc1O`, the cell number change is reported as -42%, the AC50 [2] is reported as 7.31 µM [falling, partial curve, poor fit] and the AC50 [1] is reported as 2.06 µM [falling, partial curve].
In the case of `CC(C)(C)c1[nH]c2ccccc2c1/C=N/O`, the cell number change is reported as -75.8% and the AC50 [2] is reported as 29.1 µM [falling, single point].
In the case of `NC(=O)C1CCCN(C(=O)c2ccc(S(=O)(=O)N3CCCCCC3)cc2)C1` (stereo not given), the cell number change is reported as -9.2% and the AC50 [1] is reported as 0.082 µM [falling, full curve, poor fit].
With `COCCSc1ccccc1C(=O)Nc1nncs1` the AC50 [2] was 6.51 µM [rising, single point] and the AC50 [1] was 6.51 µM [rising, single point].
With `Cc1cc(C)n(S(=O)(=O)c2ccc(C)c(C)c2C)n1` the AC50 [2] was 0.184 µM [rising, full curve, poor fit].
In the case of `COc1ccc(-c2cc(C(=O)N3CCCc4ccccc43)no2)cc1OC`, the cell number change is reported as -7.29% and the AC50 [1] is reported as 9.2 µM [falling, partial curve].
Compound `Cc1ccc(S(=O)(=O)c2nnn3c2nc(N2CCOCC2)c2ccccc23)cc1C` has a cell number change of 10.8%.
With `CCN(CC(=O)Nc1cccc(C(C)=O)c1)S(=O)(=O)c1ccc(OC)cc1` the cell number change was 9.31% and the AC50 [1] was 3.26 µM [rising, single point].
In the case of `Cc1[nH]c(=O)[nH]c(=O)c1Sc1ccccc1[N+](=O)[O-]`, the cell number change is reported as -7.14%.
For `Cc1ccccc1NC(=O)CN1CCN(Cc2ccccc2)CC1`, the cell number change was -14.6% and the AC50 [2] was 0.116 µM [falling, full curve, poor fit].
With `COc1ccc(/C=C/C(=O)Nc2ccccc2)cc1OC` the cell number change was 44.8%, the AC50 [2] was 4.61 µM [rising, full curve] and the AC50 [1] was 1.84 µM [rising, full curve].
With `CSCCC1Nc2ccc(S(=O)(=O)N3CCOCC3)cc2NC1=O` (stereo not given) the cell number change was 21.8%.
With `N#Cc1c(/N=C/c2cccnc2)sc2c1CCCC2` the cell number change was 20.9% and the AC50 [1] was 13 µM [rising, partial curve, poor fit].
In the case of `CN1CCC(=NNC(=O)C(=O)NC2CCCCC2)CC1`, the cell number change is reported as 31.8%, the AC50 [2] is reported as 0.92 µM [rising, full curve, poor fit] and the AC50 [1] is reported as 29.1 µM [falling, single point].
With `Cc1cc(C)c(S(=O)(=O)N(C)CC(N)=O)c(C)c1` the AC50 [2] was 6.51 µM [falling, single point] and the AC50 [1] was 6.51 µM [falling, single point].
With `CCOC(=O)CSc1nc2ccc(N3CCOCC3)cc2c(=O)n1Cc1ccccc1` the cell number change was 35.7%, the AC50 [2] was 0.366 µM [rising, full curve] and the AC50 [1] was 0.517 µM [rising, partial curve].
For `Cc1onc(-c2ccccc2)c1C(=O)NC(=S)Nc1sc2c(c1C#N)CCC(C)C2` (stereo not given), the cell number change was -54.8%, the AC50 [2] was 5.8 µM [falling, partial curve, poor fit] and the AC50 [1] was 0.651 µM [falling, full curve, poor fit].
`Cc1ccc(NS(=O)(=O)c2cc(C(=O)NCc3ccncc3)ccc2C)cc1` gave a cell number change of 4.91%.
`c1ccc(CCCN2CCN(c3ccccc3)CC2)cc1` gave a cell number change of 23.3%.
With `COc1cc(C(=O)NCC2CCCO2)ccc1OCc1ccc(Cl)cc1` (stereo not given) the cell number change was -4.71% and the AC50 [1] was 3.66 µM [falling, single point].
For `Cc1ccc2oc(-c3cccc(NC(=O)C4CCCO4)c3)nc2c1` (stereo not given), the cell number change was 113% and the AC50 [2] was 2.06 µM [rising, full curve].
For `CC(=O)c1ccc(NS(=O)(=O)Cc2ccc(Cl)cc2)cc1`, the cell number change was -6.97% and the AC50 [1] was 5.8 µM [falling, single point].
For `CC(=O)c1cccc(NC(=O)CN(C)S(=O)(=O)c2ccccc2)c1`, the cell number change was -18.8% and the AC50 [1] was 18.4 µM [falling, single point].
With `CCOc1ccc(S(=O)(=O)n2ccc(C)n2)cc1` the cell number change was 16.1% and the AC50 [1] was 29.1 µM [rising, single point].
In the case of `CC(=O)Nc1scc(C)c1-c1nc2ccccc2s1`, the cell number change is reported as -33.3%, the AC50 [2] is reported as 32.6 µM [falling, single point] and the AC50 [1] is reported as 29.1 µM [falling, single point].
Compound `COc1ccc(NC(=O)COC(=O)CN2C(=O)C3CCCCC3C2=O)cc1OC` (stereo not given) has a cell number change of -12.2%.
In the case of `Oc1ccc(-c2csc(Nc3ccccn3)n2)cc1`, the cell number change is reported as -26.7% and the AC50 [1] is reported as 3.26 µM [falling, single point].
In the case of `CCCc1nc2c(=O)n(C)c(=O)[nH]c2n1CCC`, the cell number change is reported as -23.4%, the AC50 [2] is reported as 1.46 µM [falling, full curve, poor fit] and the AC50 [1] is reported as 1.64 µM [falling, partial curve].
For `COC(=O)[C@H](CCSC)NC(=O)Nc1ccc(OC)cc1`, the cell number change was -1.68%, the AC50 [2] was 0.651 µM [falling, single point] and the AC50 [1] was 0.58 µM [falling, single point].
With `CN1/C(=C\C(=S)Nc2ccccc2)C(C)(C)c2ccccc21` the cell number change was -4.1% and the AC50 [1] was 5.8 µM [rising, single point].
